Laboratory results as given in publication PMC8800482.
Results are given in words; binding and its absence hold for the method and conditions named. Binding seen in cells or lysates may run through a third protein. Some results given as binding are weak or reduced against the parent protein; the word gives no strength.

By UniProt entry, the sequences of proteins in these tests, tags left out. Where a name states a change or a piece, a line headed by the entry shows the natural chain unless it says otherwise.
UniProt O75030: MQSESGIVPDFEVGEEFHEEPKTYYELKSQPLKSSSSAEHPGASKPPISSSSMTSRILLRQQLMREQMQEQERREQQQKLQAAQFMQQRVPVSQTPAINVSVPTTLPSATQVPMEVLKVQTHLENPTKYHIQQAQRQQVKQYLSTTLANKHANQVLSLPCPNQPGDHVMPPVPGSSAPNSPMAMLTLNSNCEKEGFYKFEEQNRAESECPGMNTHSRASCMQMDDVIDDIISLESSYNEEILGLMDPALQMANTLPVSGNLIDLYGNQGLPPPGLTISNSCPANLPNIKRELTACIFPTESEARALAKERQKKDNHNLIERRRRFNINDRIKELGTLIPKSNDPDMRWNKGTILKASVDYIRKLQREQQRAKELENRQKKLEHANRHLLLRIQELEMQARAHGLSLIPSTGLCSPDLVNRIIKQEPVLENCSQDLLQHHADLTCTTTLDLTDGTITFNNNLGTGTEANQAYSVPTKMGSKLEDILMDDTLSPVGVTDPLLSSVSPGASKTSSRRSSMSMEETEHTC

Columns and labels:
[1] = biological target: MITF-Y360F, in HEK293T cells (human) (UniProt O75030); assay: co-IP; exogenous; HEK293T cells with indicated constructs (Figures 4Ai, 7B, 8Cii); extracts in buffer with 1% NP-40, antibody overnight at 4°C, protein G magnetic beads, immunoblot
[2] = biological target: Microphthalmia-associated transcription factor (MITF), wild type, in HEK293T cells (human) (UniProt O75030); assay: co-IP; HEK293T cells; autophagic receptors co-introduced with His-CLK4; MITF immunoprecipitated and the receptors probed (Figure 7Ai-iii)

binding [1]: no binding
binding [2]: binds
Substance: Sequestosome 1 (SQSTM1), introduced into HEK293T cells (from UniProt Q13501 1-440)
